This note sets out measurements from PubChem BioAssay AID445 (National Center for Advancing Translational Sciences (NCATS), 2006).

Several values for one entry are separate records, joined by “and”; a condition that tells them apart may be missing. Equal entries are not always repeated. This is one part of the list. Shown are side measurements of this screen, not its main read-out; they come without a call. The list favours compounds with an active or inconclusive main result. Potencies come from curve fits of mixed quality, noted in brackets.

This assay can be described thus: IkB Signaling. Conditions: ABC-DLBCL IkBa-CBG/CBR dual luciferase ratio (green luciferase fused to IkBa over red control in OCI-Ly3 lymphoma cells), 4 h. The gist of the method:
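Luminescence ratio of IκBα-fused green versus native red beetle luciferase in OCI-Ly3 cells, 4 h post-doxycycline with compound; red signal alone, scaled from basal (0%) to zero light (-100%), flagged nonspecific or cytotoxic effects.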

Setting [1] is: measured here: control luc red channel.
The mark [2] stands for this setting: measured here: IkB-luc green channel.

Regarding `Cc1c(C(=O)c2ccc3ccccc3c2)c2cccc3c2n1[C@H](CN1CCOCC1)CO3`, the AC50 under setting [1] was 31.6 µM [falling, partial curve].

For the molecule `CSc1ccc(CN2CCN(C(=O)COc3ccc(C)cc3)CC2)cc1`, the AC50 under setting [1] is 31.6 µM [falling, single point].

Regarding `CCCCn1c(O)c(C(CC)=NCCc2ccccc2)c(=O)[nH]c1=O`, the half-maximal activity concentration (AC50) under setting [1] was 31.6 µM [falling, single point].

As to `Cc1ccc(NC(=[OH+])c2cc3ccccc3cc2O)c(C)c1.Cc1ccc(NC(=[OH+])c2cc3ccccc3cc2O)c(C)c1.[Ni]`, the AC50 under setting [1] is 3.98 µM [falling, partial curve].

Regarding `COc1ccc(OC)c(NC(=O)Cn2cc(C(=O)c3ccccc3)c3ccccc32)c1`, the AC50 under setting [1] is 6.31 µM [falling, full curve].

Turning to `COc1ccc(-c2nc(CN3C(=O)CN=C(c4ccccc4)c4cc(Cl)ccc43)c(C)o2)cc1`, under setting [1], the concentration at half-maximal activity (AC50) is 25.1 µM [falling, single point].

As to `Nc1c(C(=O)NCCc2ccccc2)c2nc3ccccc3nc2n1CCN1CCOCC1`, the AC50 under setting [1] is 12.6 µM [falling, partial curve].

As to `CN1Cc2c(ccc3c2OCO3)[C@@H]2[C@@H](O)Cc3cc4c(cc3[C@@H]21)OCO4`, the AC50 by setting is: under setting [2], 3.16 µM [rising, full curve] and 3.16 µM [rising, partial curve]; under setting [1], 3.16 µM [rising, full curve, poor fit].

Regarding `O=C(Nc1ccc2c(c1)OCCO2)c1cccn(Cc2cccc(F)c2)c1=O`, under setting [1], the AC50 is 20 µM [falling, partial curve].

Regarding `O=[N+]([O-])c1cc(O)c(O)c([N+](=O)[O-])c1`, the AC50 under setting [1] was 15.8 µM [rising, single point].

Turning to `CC(C)OCCCNC(=O)c1c(N)n(CC2CCCO2)c2nc3ccccc3nc12` (stereo not drawn), the half-maximal activity concentration (AC50) under setting [1] is 12.6 µM [falling, partial curve].

With `CN[C@@H]1C[C@@H](c2ccc(Cl)c(Cl)c2)c2ccccc21`, the AC50 under setting [2] was 25.1 µM [falling, partial curve, poor fit].

As to `O=C(Nc1ccc(Cl)cc1C(=O)c1ccccc1)c1ccccc1Br`, under setting [1], the AC50 was 39.8 µM [falling, single point].

As for `COc1cc(C(c2c(O)c3ccccc3oc2=O)c2c(C)n(C)n(-c3ccccc3)c2=O)ccc1OCC(=O)O` (stereo not drawn), the AC50 under setting [1] was 5.01 µM [falling, full curve].

`Cc1c(Cl)cccc1NC(=O)CN1C(=O)C(C)N=C(c2ccccc2)c2ccccc21` (stereo not drawn): under setting [1], the AC50 was 15.8 µM [falling, single point].

For `CC1CN=C(Nc2cccc3ccccc23)S1` (stereo not drawn), the concentration at half-maximal activity (AC50) under setting [1] was 15.8 µM [falling, partial curve].

Take `CCOC(=O)c1c(-c2ccc(OC)cc2)oc2ccc(OC(=O)N(C)C)cc12`: under setting [1], the AC50 is 12.6 µM [falling, partial curve].

On to `O=C(Nc1ccc2c(c1)OCO2)c1cccn(Cc2cccc(F)c2)c1=O`, for which the AC50 under setting [1] is 20 µM [falling, partial curve].

As for `Cc1ccc(Cn2nnnc2CN2CCC(n3nnc4cc(C(F)(F)F)ccc43)CC2)cc1`, under setting [1], the concentration at half-maximal activity (AC50) is 31.6 µM [falling, partial curve].

In the case of `Cn1cc(/C=C/c2nc3ccccc3c(=O)n2-c2ccccc2)c2ccccc21`, the AC50 under setting [1] was 7.94 µM [falling, partial curve].

As to `Nc1c(C(=O)Nc2ccc(Cl)cc2)sc2nc3c(cc12)N1CCC3CC1`, the half-maximal activity concentration (AC50) under setting [1] was 10 µM [falling, partial curve].

With `COc1cc(C(c2c(O)c3ccccc3oc2=O)c2c(C)n(C)n(-c3ccccc3)c2=O)ccc1O` (stereo not drawn), the AC50 under setting [1] is 2.51 µM [falling, full curve].

Take `O=c1c2ccccc2nc(/C=C/c2ccccc2)n1-c1ccccc1F`: the AC50 under setting [1] was 31.6 µM [falling, partial curve].

As for `Cc1cccc(N2CCc3c2nc2ccccc2c3N)c1`, under setting [1], the AC50 is 39.8 µM [falling, single point].

`C=CCN1C[C@H](C)N([C@H](c2ccc(C(=O)N(CC)CC)cc2)c2cccc(OC)c2)C[C@H]1C`: the AC50 under setting [1] was 3.16 µM [rising, full curve, poor fit].

Take `O=C1CC(c2ccc(F)cc2)c2c(c3ccccc3oc2=O)O1` (stereo not drawn): under setting [1], the AC50 was 10 µM [falling, partial curve].

As for `COc1ccc(CCNCc2ccc3c(c2)n(C)c(=O)n3C)cc1`, under setting [1], the AC50 was 20 µM [rising, partial curve].

On to `CCOc1ccc(NC(=O)c2cccn(Cc3cccc(Cl)c3)c2=O)cc1`, for which, under setting [1], the AC50 was 0.316 µM [rising, partial curve].

For the molecule `Cc1oc(-c2ccccc2Cl)nc1CN1C(=O)CN=C(c2ccccc2)c2cc(Cl)ccc21`, the AC50 under setting [1] was 10 µM [falling, partial curve].

For the molecule `N#Cc1cccc(NC(=O)c2sc3nc4c(cc3c2N)N2CCC4CC2)c1`, the AC50 under setting [1] was 20 µM [falling, partial curve].

On to `COc1ccc(NC(=O)CCc2nc(C3=CCN(Cc4cccc(Cl)c4)CC3)no2)cc1OC`, for which, under setting [1], the AC50 was 39.8 µM [falling, single point].

Consider `O=C1CC(N2CC=C(c3ccccc3)CC2)C(=O)N1c1ccc(F)cc1` (stereo not drawn), for which the concentration at half-maximal activity (AC50) under setting [1] was 7.94 µM [falling, partial curve].

On to `O=C(Cn1ncc2c3ccccc3n(Cc3cccc(Cl)c3)c2c1=O)N1CCC2(CC1)OCCO2`, for which, under setting [1], the AC50 is 20 µM [falling, partial curve].

As for `Cc1ccc(-n2nc(C)c3c2NC(=O)CSC3c2ccc(O)cc2)cc1Cl` (stereo not drawn), the AC50 under setting [1] is 10 µM [falling, partial curve].

With `CCCCn1c(O)c(C(CC)=NCc2ccc3c(c2)OCO3)c(=O)[nH]c1=O`, the AC50 under setting [1] is 20 µM [falling, partial curve].

Take `CN(C(=O)Cc1ccc(Cl)c(Cl)c1)[C@H](CN1CCCC1)c1ccccc1`: under setting [1], the AC50 was 39.8 µM [falling, single point].

As to `CCCC12CN3CC(C)(CN(C1)C3c1ccccn1)C2=O` (stereo not drawn), under setting [1], the AC50 was 39.8 µM [falling, single point].

Consider `CCCC1(CCC)C(=O)NC(=NCc2ccccc2)NC1=O`, for which the AC50 under setting [1] was 25.1 µM [falling, partial curve].

Regarding `COC(=O)/C=C\C(=O)N[C@@H]1CC[C@@]2(O)[C@H]3Cc4ccc(O)c5c4[C@@]2(CCN3CC2CC2)[C@@H]1O5`, the AC50 under setting [1] was 39.8 µM [falling, partial curve].

Consider `COc1ccc(NC(C)=O)cc1NC(=O)c1cccn(Cc2ccccc2)c1=O`, for which the concentration at half-maximal activity (AC50) under setting [1] is 39.8 µM [falling, single point].

For `Cc1ccc(Cn2nnnc2CN2CCC(n3nnc4cc(C)ccc43)CC2)cc1`, under setting [1], the AC50 was 39.8 µM [falling, single point].

With `C[C@H]1C[C@@H](C)C(=O)[C@@H]([C@H](O)CC2CC(=O)NC(=O)C2)C1`, the AC50 by setting is: under setting [2], 0.398 µM [rising, full curve, poor fit]; under setting [1], 0.631 µM [falling, full curve].

Regarding `COC(C)(C)CCCC(C)C/C=C/C(C)=C/C(=O)OC(C)C` (stereo not drawn), the AC50 under setting [1] was 0.126 µM [falling, full curve].

Consider `Cc1ccccc1-n1c(/C=C/c2ccc(O)cc2)nc2ccccc2c1=O`, for which the AC50 under setting [1] was 10 µM [falling, partial curve].

On to `CCOC(=O)C1=C(N)Oc2c(c(=O)oc3ccccc23)C12C(=O)N(C)c1ccccc12` (stereo not drawn), for which, under setting [1], the concentration at half-maximal activity (AC50) is 0.794 µM [falling, partial curve].

As to `Cc1ccc(Cn2cccc(C(=O)Nc3nnc(C)s3)c2=O)cc1`, the AC50 under setting [2] is 5.01 µM [rising, single point] and the AC50 under setting [1] was 1 µM [rising, full curve, poor fit].

`CC(C)CCOC(=O)c1c(N)n(CC2CCCO2)c2nc3ccccc3nc12` (stereo not drawn): under setting [1], the AC50 was 20 µM [falling, partial curve, poor fit].

As for `CCN(CC)C(=O)c1ccc(NC(=O)Cn2nc(-c3ccc(C)cc3)c3ccccc3c2=O)cc1`, the concentration at half-maximal activity (AC50) under setting [1] is 20 µM [falling, single point].

Regarding `CN1C[C@H](CNC(=O)OCc2ccccc2)C[C@H]2c3cccc4c3c(cn4C)C[C@@H]21`, the AC50 under setting [1] was 39.8 µM [falling, single point].

On to `CN(C)P(=O)(C(Cl)=C(N1CCCCC1)N1CCCCC1)N(C)C`, for which the half-maximal activity concentration (AC50) under setting [1] is 2.51 µM [rising, full curve].

With `COc1ccc(C[C@@H]2NC[C@H](O)[C@H]2OC(C)=O)cc1`, the AC50 was 0.251 µM [rising, single point] under setting [2] and 1.26 µM [falling, full curve] under setting [1].

In the case of `CN(CCc1ccc(Cl)c(Cl)c1)[C@H]1CCCC[C@H]1N1CCCC1`, the AC50 under setting [1] was 39.8 µM [falling, single point].

Consider `CCCCOC(=O)c1ccccc1C(=O)OCc1ccccc1`, for which, under setting [1], the AC50 is 0.316 µM [falling, full curve].

With `O=C(O)CCCc1ccc(N(CCCl)CCCl)cc1`, the AC50 under setting [1] is 39.8 µM [rising, partial curve].

`COc1ccc(Cn2c(N)c(C(=O)NCc3ccco3)c3nc4ccccc4nc32)cc1`: the AC50 under setting [2] is 25.1 µM [rising, partial curve].

For the molecule `c1ccc2c(c1)OC[C@@H](C1=NCCN1)O2`, the AC50 by setting is: under setting [2], 5.01 µM [rising, full curve]; under setting [1], 31.6 µM [falling, partial curve].

Consider `[CH3][Hg][Cl]`, for which the concentration at half-maximal activity (AC50) is 0.398 µM [rising, full curve, poor fit] under setting [2] and 1 µM [rising, full curve] under setting [1].

As for `C=CCN1CC[C@]23c4c5ccc(O)c4O[C@@H]2/C(=N/NC(=O)c2ccccc2)CC[C@@]3(O)[C@H]1C5`, the AC50 runs as follows: under setting [2], 2.51 µM [rising, full curve, poor fit]; under setting [1], 1.26 µM [rising, full curve, poor fit].

With `CCCCn1c(=O)c(C(=O)Nc2nc3ccccc3[nH]2)c(O)c2ccccc21`, the AC50 under setting [1] is 0.0398 µM [falling, full curve].

Turning to `COC1=C(C)C(=O)c2c(c(COC(N)=O)c3n2C[C@@H]2[C@@H]3N2C)C1=O` (stereo partly drawn), the AC50 runs as follows: under setting [2], 1 µM [rising, partial curve]; under setting [1], 3.98 µM [falling, single point].

By AC50 is commonly meant the concentration giving half of the maximal activity seen.
